The supplement of paper PMC12823440, “Inhibitors supercharge kinase turnover through native proteolytic circuits” (Nature, 2025)
Counter-ions that a name gives are not always drawn. The list shows a part of the results. Hit calls seldom repeat between salt and free forms of one compound.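 Kinases were expressed as nanoluciferase fusions in K562 cells and luminescence was read every 4 h between 2 and 18 h as percent of control, DMSO set to 100% and a positive control to 0%. A time point counts as decreased when the signal drops significantly (2 sigma). The hit call is the authors' own, does not follow from the count of time points alone, and its rule is not shown.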

The chains behind the UniProt entries cited, without tags or fusion partners. Where a name states a change or a piece, a line headed by the entry shows the natural chain unless it says otherwise.
UniProt P29317, whole entry: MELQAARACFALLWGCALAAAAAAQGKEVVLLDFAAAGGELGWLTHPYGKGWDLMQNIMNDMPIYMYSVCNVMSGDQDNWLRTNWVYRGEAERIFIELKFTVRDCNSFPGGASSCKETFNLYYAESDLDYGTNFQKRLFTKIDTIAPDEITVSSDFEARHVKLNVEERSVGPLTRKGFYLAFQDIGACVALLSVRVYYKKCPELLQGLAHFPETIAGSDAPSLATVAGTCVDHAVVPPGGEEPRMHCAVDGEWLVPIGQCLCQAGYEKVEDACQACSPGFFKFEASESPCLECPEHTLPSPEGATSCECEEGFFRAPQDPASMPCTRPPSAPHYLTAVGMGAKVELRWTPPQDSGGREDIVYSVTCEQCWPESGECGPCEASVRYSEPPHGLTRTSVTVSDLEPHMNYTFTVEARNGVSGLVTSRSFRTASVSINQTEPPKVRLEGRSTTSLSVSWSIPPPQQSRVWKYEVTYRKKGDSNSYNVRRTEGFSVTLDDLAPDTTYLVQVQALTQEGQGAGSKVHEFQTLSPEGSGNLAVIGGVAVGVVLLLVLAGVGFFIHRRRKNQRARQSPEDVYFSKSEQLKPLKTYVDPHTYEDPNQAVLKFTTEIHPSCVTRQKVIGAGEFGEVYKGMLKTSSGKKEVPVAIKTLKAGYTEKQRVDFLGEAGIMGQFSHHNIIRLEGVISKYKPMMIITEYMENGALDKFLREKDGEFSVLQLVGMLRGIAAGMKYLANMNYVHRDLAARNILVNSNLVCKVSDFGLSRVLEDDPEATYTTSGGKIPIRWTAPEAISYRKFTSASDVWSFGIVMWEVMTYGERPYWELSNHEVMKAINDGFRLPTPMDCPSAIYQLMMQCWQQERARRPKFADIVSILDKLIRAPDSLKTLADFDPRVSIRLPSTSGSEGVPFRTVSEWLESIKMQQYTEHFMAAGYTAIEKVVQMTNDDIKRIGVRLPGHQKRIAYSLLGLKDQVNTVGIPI
UniProt Q15303, whole entry R711C: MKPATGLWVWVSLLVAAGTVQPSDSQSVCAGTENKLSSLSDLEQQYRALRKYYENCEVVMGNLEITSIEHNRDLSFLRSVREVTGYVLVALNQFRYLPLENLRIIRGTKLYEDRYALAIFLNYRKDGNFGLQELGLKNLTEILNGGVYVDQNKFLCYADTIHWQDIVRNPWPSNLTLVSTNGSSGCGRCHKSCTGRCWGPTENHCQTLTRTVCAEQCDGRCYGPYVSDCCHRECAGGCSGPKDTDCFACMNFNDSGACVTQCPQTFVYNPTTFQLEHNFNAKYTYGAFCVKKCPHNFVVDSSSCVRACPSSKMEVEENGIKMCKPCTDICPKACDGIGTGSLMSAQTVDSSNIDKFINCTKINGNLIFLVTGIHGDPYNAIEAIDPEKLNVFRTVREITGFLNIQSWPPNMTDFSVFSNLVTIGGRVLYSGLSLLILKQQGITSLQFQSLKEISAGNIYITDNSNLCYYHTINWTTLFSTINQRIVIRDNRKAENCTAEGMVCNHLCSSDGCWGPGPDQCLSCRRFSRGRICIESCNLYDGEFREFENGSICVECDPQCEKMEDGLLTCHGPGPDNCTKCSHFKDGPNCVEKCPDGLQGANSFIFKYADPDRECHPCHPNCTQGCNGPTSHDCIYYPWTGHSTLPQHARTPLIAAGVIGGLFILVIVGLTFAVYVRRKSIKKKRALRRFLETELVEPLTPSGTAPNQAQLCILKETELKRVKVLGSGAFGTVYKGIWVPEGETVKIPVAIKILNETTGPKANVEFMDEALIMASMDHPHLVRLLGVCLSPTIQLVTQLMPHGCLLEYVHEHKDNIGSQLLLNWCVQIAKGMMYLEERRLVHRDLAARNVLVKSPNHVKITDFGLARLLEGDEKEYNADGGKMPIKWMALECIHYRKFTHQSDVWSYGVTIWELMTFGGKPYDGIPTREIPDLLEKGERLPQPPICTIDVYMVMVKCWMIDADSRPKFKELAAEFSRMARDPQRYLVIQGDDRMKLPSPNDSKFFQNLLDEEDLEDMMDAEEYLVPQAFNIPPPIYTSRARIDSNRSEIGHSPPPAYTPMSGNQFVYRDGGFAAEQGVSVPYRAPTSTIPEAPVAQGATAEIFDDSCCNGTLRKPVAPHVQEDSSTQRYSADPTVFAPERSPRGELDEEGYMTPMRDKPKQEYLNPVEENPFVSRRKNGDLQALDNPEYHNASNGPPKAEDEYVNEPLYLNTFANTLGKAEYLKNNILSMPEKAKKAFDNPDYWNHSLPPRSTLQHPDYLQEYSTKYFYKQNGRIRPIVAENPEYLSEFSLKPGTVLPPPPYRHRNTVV
UniProt P11362, whole entry, looked up: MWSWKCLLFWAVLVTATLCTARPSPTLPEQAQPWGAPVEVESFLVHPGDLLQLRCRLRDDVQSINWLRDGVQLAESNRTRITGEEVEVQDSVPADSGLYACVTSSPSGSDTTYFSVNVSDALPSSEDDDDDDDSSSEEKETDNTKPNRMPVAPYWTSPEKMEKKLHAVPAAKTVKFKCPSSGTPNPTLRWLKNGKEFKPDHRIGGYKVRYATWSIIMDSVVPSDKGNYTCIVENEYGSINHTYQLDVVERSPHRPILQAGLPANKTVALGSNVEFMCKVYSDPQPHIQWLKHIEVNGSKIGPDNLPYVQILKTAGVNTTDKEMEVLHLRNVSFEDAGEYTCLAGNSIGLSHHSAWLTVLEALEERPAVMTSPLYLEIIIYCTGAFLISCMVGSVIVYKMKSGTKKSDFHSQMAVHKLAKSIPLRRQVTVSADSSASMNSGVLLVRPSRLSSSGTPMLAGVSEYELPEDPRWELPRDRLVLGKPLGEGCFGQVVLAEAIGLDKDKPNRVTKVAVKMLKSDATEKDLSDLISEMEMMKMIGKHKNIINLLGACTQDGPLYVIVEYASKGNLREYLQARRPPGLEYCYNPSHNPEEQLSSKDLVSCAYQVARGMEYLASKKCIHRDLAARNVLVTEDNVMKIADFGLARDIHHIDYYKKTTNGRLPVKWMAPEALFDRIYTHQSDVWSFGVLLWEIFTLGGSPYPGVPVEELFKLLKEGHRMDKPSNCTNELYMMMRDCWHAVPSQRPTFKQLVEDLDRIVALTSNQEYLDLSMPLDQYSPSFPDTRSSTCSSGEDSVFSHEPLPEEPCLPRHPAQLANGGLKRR
UniProt P22607, whole entry, looked up: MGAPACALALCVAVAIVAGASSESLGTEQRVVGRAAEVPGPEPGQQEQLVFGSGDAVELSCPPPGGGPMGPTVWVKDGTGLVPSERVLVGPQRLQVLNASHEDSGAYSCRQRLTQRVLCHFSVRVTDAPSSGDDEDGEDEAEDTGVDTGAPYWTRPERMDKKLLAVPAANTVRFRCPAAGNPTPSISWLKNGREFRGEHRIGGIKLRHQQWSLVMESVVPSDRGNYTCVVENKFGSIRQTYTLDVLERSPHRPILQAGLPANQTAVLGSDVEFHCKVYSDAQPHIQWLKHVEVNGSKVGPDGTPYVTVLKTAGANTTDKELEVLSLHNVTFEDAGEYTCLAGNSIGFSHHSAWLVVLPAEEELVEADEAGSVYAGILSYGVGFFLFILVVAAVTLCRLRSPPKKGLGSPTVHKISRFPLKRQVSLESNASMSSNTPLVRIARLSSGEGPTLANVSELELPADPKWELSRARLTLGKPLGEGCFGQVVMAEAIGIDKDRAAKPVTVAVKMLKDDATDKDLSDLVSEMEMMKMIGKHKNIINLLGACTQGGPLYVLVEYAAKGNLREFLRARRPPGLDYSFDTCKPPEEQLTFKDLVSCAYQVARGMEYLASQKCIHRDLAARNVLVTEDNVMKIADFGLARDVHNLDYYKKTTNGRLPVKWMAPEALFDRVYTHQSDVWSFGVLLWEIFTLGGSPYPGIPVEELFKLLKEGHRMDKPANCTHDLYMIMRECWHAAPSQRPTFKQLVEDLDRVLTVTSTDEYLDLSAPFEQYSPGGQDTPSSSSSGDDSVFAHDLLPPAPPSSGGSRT
UniProt P06241, whole entry, looked up: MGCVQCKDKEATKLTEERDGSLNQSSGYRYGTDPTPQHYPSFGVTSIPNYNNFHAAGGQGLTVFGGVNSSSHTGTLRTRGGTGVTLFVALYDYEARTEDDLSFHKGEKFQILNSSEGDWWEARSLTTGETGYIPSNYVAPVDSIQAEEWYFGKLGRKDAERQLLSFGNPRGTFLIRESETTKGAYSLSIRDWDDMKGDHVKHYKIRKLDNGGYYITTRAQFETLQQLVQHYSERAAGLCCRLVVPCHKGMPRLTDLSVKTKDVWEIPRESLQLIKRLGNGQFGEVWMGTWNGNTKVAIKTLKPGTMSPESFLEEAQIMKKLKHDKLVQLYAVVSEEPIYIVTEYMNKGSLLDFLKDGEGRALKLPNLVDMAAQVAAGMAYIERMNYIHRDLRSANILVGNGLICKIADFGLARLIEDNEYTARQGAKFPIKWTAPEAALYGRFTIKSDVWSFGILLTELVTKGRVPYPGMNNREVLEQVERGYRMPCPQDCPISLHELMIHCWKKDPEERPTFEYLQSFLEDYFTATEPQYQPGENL
UniProt P49840: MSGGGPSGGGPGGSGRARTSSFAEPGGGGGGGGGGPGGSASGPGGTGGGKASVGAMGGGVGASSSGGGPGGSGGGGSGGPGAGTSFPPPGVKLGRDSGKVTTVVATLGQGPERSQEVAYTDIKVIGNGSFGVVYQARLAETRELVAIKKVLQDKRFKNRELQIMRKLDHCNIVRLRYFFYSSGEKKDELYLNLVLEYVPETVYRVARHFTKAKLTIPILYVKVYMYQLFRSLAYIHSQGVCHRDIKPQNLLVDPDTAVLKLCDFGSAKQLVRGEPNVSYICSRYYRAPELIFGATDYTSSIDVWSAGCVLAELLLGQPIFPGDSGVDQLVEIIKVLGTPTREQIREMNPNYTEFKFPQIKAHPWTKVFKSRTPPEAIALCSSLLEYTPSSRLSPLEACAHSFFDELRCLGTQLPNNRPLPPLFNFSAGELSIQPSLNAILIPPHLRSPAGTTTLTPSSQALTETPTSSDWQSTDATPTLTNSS
UniProt P14616: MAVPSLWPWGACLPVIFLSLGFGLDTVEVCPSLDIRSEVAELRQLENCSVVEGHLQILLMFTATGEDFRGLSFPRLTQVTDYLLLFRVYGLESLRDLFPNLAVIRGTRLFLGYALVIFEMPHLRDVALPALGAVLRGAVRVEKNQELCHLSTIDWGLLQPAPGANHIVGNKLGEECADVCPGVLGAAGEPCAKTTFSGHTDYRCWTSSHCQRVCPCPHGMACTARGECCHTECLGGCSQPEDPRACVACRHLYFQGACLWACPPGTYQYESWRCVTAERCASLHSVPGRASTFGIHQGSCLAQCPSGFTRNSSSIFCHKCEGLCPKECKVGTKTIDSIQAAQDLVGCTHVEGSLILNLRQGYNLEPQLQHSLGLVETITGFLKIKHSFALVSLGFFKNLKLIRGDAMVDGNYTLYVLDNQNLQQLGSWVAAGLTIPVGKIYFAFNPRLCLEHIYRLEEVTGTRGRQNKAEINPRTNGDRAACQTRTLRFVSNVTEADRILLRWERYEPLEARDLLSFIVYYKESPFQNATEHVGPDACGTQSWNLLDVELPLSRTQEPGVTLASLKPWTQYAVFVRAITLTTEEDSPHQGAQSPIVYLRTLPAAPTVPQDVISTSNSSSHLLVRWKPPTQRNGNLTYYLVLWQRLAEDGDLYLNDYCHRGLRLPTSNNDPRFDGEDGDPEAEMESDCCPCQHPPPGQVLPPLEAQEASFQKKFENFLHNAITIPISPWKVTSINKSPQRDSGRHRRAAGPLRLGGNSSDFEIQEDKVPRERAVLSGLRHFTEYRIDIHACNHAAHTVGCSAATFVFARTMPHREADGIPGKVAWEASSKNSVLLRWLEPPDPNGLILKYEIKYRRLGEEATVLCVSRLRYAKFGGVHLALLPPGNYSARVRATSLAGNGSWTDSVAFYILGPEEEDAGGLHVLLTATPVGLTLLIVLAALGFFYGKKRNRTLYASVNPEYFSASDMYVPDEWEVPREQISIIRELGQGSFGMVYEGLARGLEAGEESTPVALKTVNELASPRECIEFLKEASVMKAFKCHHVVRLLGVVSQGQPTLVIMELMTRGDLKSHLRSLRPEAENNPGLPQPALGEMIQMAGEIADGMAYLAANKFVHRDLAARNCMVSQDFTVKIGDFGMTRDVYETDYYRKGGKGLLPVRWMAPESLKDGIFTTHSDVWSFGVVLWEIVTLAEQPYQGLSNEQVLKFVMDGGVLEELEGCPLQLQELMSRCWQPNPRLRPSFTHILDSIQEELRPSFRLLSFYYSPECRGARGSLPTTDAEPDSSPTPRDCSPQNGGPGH

Assays:
Assay in all cases: kinase-Nluc reporter destabilization hit call (1 = scored as downregulated) (binary); higher = compound decreases kinase abundance
Settings in all cases: K562, 2-18 h
[1] = molecular target: EGFR (UniProt P00533)
[2] = molecular target: EGFR_G719S (UniProt P00533)
[3] = molecular target: EGFR_G719S_T790M (UniProt P00533)
[4] = molecular target: EGFR_L718V (UniProt P00533)
[5] = molecular target: EGFR_L858R (UniProt P00533)
[6] = molecular target: EGFR_L861Q (UniProt P00533)
[7] = molecular target: EGFR_T790M (UniProt P00533)
[8] = molecular target: EPHA2 (UniProt P29317)
[9] = molecular target: ERBB3 (UniProt P21860)
[10] = molecular target: ERBB4_R711C (clone: ERBB4_mut) (UniProt Q15303)
[11] = molecular target: ERN1 (UniProt O75460)
[12] = molecular target: FGFR1 (UniProt P11362)
[13] = molecular target: FGFR2 (UniProt P21802)
[14] = molecular target: FGFR3 (UniProt P22607)
[15] = molecular target: FGR (UniProt P09769)
[16] = molecular target: FLT3 (UniProt P36888)
[17] = molecular target: FYN (UniProt P06241)
[18] = molecular target: GSK3A (UniProt P49840)
[19] = molecular target: HER2 (UniProt P04626)
[20] = molecular target: INSRR (UniProt P14616)

Measured: kinase-Nluc reporter destabilization hit call

Oc1cccc(-c2nc(N3CCOCC3)c3oc4ncccc4c3n2)c1
inactive: [1]; 10 µM 0 | [2]; 10 µM 0 | [3]; 10 µM 0 | [4]; 10 µM 0 | [5]; 10 µM 0 | [6]; 10 µM 0 | [7]; 10 µM 0 | [8]; 10 µM 0 | [9]; 10 µM 0 | [10]; 10 µM 0 | [11]; 10 µM 0 | [12]; 10 µM 0 | [13]; 10 µM 0 | [14]; 10 µM 0 | [15]; 10 µM 0 | [16]; 10 µM 0 | [17]; 10 µM 0 | [18]; 10 µM 0 | [19]; 10 µM 0 | [20]; 10 µM 0

CCN(CC)CC(=O)Nc1c(C)cccc1C [Lidocaine (hydrochloride)]
inactive: [1]; 10 µM 0 | [2]; 10 µM 0 | [3]; 10 µM 0 | [4]; 10 µM 0 | [5]; 10 µM 0 | [6]; 10 µM 0 | [7]; 10 µM 0 | [8]; 10 µM 0 | [9]; 10 µM 0 | [10]; 10 µM 0 | [11]; 10 µM 0 | [12]; 10 µM 0 | [13]; 10 µM 0 | [14]; 10 µM 0 | [15]; 10 µM 0 | [16]; 10 µM 0 | [17]; 10 µM 0 | [18]; 10 µM 0 | [19]; 10 µM 0 | [20]; 10 µM 0

CCS(=O)(=O)N1CC(CC#N)(n2cc(-c3ncnc4[nH]ccc34)cn2)C1 [Baricitinib]
inactive: [1]; 10 µM 0 | [2]; 10 µM 0 | [3]; 10 µM 0 | [4]; 10 µM 0 | [5]; 10 µM 0 | [6]; 10 µM 0 | [7]; 10 µM 0 | [8]; 10 µM 0 | [9]; 10 µM 0 | [10]; 10 µM 0 | [11]; 10 µM 0 | [12]; 10 µM 0 | [13]; 10 µM 0 | [14]; 10 µM 0 | [15]; 10 µM 0 | [16]; 10 µM 0 | [17]; 10 µM 0 | [18]; 10 µM 0 | [19]; 10 µM 0 | [20]; 10 µM 0

C=CC(=O)Nc1cc(Nc2nccc(-c3cn(C4CC4)c4ccccc34)n2)c(OC)cc1N(C)CCN(C)C [Almonertinib (hydrochloride)]
active: [19]; 2.5 µM 1
inactive: [1]; 2.5 µM 0 | [2]; 2.5 µM 0 | [3]; 2.5 µM 0 | [4]; 2.5 µM 0 | [5]; 2.5 µM 0 | [6]; 2.5 µM 0 | [7]; 2.5 µM 0 | [8]; 2.5 µM 0 | [9]; 2.5 µM 0 | [10]; 2.5 µM 0 | [11]; 2.5 µM 0 | [12]; 2.5 µM 0 | [13]; 2.5 µM 0 | [14]; 2.5 µM 0 | [15]; 2.5 µM 0 | [16]; 2.5 µM 0 | [17]; 2.5 µM 0 | [18]; 2.5 µM 0 | [20]; 2.5 µM 0

O=C(Nc1cnn2ccc(N3CCC[C@@H]3c3cc(F)ccc3F)nc12)N1CC[C@H](O)C1 [Larotrectinib sulfate]
inactive: [1]; 10 µM 0 | [2]; 10 µM 0 | [3]; 10 µM 0 | [4]; 10 µM 0 | [5]; 10 µM 0 | [6]; 10 µM 0 | [7]; 10 µM 0 | [8]; 10 µM 0 | [9]; 10 µM 0 | [10]; 10 µM 0 | [11]; 10 µM 0 | [12]; 10 µM 0 | [13]; 10 µM 0 | [14]; 10 µM 0 | [15]; 10 µM 0 | [16]; 10 µM 0 | [17]; 10 µM 0 | [18]; 10 µM 0 | [19]; 10 µM 0 | [20]; 10 µM 0
